# Test results as given in PubChem BioAssay AID493199 (National Center for Advancing Translational Sciences (NCATS), 2011).
# Protein sequences, listed by entry. Tags and fused reporters are not part of them. Lines headed by an entry give the natural chain unless they say otherwise; changes in a name come on top.
# UniProt Q9NR56: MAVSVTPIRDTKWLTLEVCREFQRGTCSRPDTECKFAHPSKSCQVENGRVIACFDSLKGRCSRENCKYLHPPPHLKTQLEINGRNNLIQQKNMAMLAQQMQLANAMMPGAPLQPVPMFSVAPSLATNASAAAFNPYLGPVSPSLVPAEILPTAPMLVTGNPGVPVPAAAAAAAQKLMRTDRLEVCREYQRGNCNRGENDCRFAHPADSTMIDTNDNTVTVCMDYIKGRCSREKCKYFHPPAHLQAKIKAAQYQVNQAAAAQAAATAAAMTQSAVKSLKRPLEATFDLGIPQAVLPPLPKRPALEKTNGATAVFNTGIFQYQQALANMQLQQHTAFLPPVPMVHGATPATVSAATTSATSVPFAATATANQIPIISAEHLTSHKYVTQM
# This list was built around the results that the source calls inconclusive (neither active nor inactive); the mix of calls is not that of the screen. Potencies of inconclusive entries are doubtful fits and often do not repeat. The source made the active and inactive calls. The call rests on the fitted dose curve; in most records, active means well fitted inhibition curve with a large enough effect; inconclusive means small, poorly fitted or top-dose-only effect, or effect the other way; inactive means no such curve, though single readings can be large or run the other way.
# Target: Muscleblind-like protein 1 (Homo sapiens) (UniProt Q9NR56)
# Assay: qHTS Assay for Inhibitors of MBNL1-poly(CUG) RNA binding: Initial hit validation from the primary screen
# Conditions: TR-FRET MBNL1-His / biotin-(CUG)12 binding, 60 min
# Text: NIH Chemical Genomics Center [NCGC] NIH Molecular Libraries Probe Production Centers Network [MLPCN] MLPCN Grant: R03 MH087421-01 Assay Submitter (PI): Charles Thornton NCGC Assay Overview: Expanded CTG repeats in the 3' untranslated region of the DM protein kinase (DMPK) gene causes type I myotonic dystrophy (DM1). DM1 is a multi-systemic disease with a prevalence of 1/7000. Clinical features include myotonia, progressive muscle weakness and wasting, cardiac arrhythmia, insulin resistance, hypersomnolence, cataracts, and other symptoms. The pathogenic effect of expanded CTG repeats stems from deleterious effects of the mutant transcript. CUGexp mRNA accumulates in nuclear foci and sequesters proteins of the muscleblind family, of which MBNL1 is the most common family member in skeletal muscles. The binding interaction between MBNL1 and CUGexp tracts leads to deregulation of alternative splicing and is therefore a key molecular step in the pathogenesis of DM1. To target this binding interaction, we optimized a protein-RNA binding assay in 1536-well format for identification of small molecule inhibitors of biotinylated (CUG)12 and his-tagged MBNL1 binding. Protein-RNA complex of MBNL1-His and Biotin-(CUG)12 captures the detection reagents terbium-labeled anti-His antibody and streptavidin conjugated XL665. This brings the terbium label within close proximity to XL665 to allow time-resolved fluorescence resonance energy transfer (TR-FRET). Inhibitors of MBNL1-(CUG)12 binding will disrupt TR-FRET. This deposition presents the initial confirmation of hits from the primary screen in the same assay.
# NCGC Assay Protocol Summary: This is a TR-FRET binding assay with MBNL1-His and Biotin-(CUG)12 RNA. The assay uses a ratiometric measurement. In the presence of MBNL1-(CUG)12 complex, the excitation energy is transferred to the XL665 acceptor label, causing emission at 665nm, while the 545nm donor signal remains the same. Data were normalized to the controls for basal activity (buffer only) and 100% activity (with MBNL1-(CUG)12). […] The final titration was 92 nM to 58 uM. (3) Add 1 ul of terbium labeled anti-His antibody (0.055 ng/ul final concentration) (4) Add 1 ul of streptavidin-XL665 (5 nM final concentration) (5) Incubate 60 min at room temperature (6) Detect the assay plate in a EnVision plate reader (PerkinElmer) with Ex=340 nm, Em1=665 nm and Em2=545 nm. Keywords: mytonic dystrophy type I, DM1, muscleblind like 1, MBNL1, CUG expansion, protein-RNA binding inhibitor, high throughput screening, MLSMR, MLSCN, NIH Roadmap, qHTS and NCGC
row,SMILES,Potency
1,CCOC(=O)N1CCC(NC(=O)CCc2nc(C3=CCN(C)CC3)no2)CC1,active: 8.19 µM
2,CN1C[C@H](CNC(=O)OCc2ccccc2)C[C@@H]2c3cccc4c3c(cn4C)C[C@H]21,"inconclusive: 22.4 µM [inhibitor, partial curve]"
3,CC(O)C(C)OC(=O)[C@@H]1C[C@@H]2c3cccc4c3c(cn4C(C)C)C[C@H]2N(C)C1 (some centres not stated),"inconclusive: 7.94 µM [inhibitor, full curve]"
4,O=C1c2ccccc2C(=O)C1C(=O)C(c1ccccc1)c1ccccc1,"inconclusive: 2.91 µM [activator, full curve]"
5,CCn1cc(CN2CCCC(C(=O)c3cccc(OC)c3)C2)c(C)n1 (configuration not stated),"inconclusive: 65.1 µM [inhibitor, partial curve]"
6,Oc1ccc2c3c1O[C@H]1c4[nH]c5c(c4C[C@@]4(O)[C@@H](C2)N(CC2CC2)CC[C@]314)C[C@@]1(O)[C@H]2Cc3ccc(O)c4c3[C@@]1(CCN2CC1CC1)[C@H]5O4,active: 15.8 µM
7,COc1ccc2nc(NC(=O)CCc3nc(C4=CCN(C)CC4)no3)sc2c1,"inconclusive: 41.1 µM [inhibitor, partial curve, poor fit]"
